The target of the assay is T1, zinc finger Asp-His-His-Cys-type palmitoyltransferase 15 (ZDHHC15) (human (endogenous in U251 GSCs)) (UniProt Q96MV8).
T1 sequence: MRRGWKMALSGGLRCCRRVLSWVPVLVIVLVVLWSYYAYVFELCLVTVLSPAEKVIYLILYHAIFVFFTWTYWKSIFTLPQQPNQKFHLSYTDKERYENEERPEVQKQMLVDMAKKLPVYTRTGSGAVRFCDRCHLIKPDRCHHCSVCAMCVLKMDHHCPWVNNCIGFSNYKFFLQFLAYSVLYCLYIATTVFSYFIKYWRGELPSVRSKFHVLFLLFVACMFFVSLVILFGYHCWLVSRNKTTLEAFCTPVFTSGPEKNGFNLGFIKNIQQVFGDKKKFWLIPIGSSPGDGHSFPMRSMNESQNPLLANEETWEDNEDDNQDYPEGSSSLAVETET
Put plainly: co-IP; U251 GSC lysate (radioimmunoassay buffer with protease inhibitors, 500 ug total protein) immunoprecipitated with agarose fixed anti-ZDHHC15 antibody (1 ug) at 4 °C; immunoblot with anti-GP130, anti-LRP12 and anti-RIF1. Background: A western blot detects proteins with antibodies after separation by electrophoresis.

By UniProt entry, the sequences of proteins in these tests, tags left out. Residues count along the entry.
UniProt Q5UIP0: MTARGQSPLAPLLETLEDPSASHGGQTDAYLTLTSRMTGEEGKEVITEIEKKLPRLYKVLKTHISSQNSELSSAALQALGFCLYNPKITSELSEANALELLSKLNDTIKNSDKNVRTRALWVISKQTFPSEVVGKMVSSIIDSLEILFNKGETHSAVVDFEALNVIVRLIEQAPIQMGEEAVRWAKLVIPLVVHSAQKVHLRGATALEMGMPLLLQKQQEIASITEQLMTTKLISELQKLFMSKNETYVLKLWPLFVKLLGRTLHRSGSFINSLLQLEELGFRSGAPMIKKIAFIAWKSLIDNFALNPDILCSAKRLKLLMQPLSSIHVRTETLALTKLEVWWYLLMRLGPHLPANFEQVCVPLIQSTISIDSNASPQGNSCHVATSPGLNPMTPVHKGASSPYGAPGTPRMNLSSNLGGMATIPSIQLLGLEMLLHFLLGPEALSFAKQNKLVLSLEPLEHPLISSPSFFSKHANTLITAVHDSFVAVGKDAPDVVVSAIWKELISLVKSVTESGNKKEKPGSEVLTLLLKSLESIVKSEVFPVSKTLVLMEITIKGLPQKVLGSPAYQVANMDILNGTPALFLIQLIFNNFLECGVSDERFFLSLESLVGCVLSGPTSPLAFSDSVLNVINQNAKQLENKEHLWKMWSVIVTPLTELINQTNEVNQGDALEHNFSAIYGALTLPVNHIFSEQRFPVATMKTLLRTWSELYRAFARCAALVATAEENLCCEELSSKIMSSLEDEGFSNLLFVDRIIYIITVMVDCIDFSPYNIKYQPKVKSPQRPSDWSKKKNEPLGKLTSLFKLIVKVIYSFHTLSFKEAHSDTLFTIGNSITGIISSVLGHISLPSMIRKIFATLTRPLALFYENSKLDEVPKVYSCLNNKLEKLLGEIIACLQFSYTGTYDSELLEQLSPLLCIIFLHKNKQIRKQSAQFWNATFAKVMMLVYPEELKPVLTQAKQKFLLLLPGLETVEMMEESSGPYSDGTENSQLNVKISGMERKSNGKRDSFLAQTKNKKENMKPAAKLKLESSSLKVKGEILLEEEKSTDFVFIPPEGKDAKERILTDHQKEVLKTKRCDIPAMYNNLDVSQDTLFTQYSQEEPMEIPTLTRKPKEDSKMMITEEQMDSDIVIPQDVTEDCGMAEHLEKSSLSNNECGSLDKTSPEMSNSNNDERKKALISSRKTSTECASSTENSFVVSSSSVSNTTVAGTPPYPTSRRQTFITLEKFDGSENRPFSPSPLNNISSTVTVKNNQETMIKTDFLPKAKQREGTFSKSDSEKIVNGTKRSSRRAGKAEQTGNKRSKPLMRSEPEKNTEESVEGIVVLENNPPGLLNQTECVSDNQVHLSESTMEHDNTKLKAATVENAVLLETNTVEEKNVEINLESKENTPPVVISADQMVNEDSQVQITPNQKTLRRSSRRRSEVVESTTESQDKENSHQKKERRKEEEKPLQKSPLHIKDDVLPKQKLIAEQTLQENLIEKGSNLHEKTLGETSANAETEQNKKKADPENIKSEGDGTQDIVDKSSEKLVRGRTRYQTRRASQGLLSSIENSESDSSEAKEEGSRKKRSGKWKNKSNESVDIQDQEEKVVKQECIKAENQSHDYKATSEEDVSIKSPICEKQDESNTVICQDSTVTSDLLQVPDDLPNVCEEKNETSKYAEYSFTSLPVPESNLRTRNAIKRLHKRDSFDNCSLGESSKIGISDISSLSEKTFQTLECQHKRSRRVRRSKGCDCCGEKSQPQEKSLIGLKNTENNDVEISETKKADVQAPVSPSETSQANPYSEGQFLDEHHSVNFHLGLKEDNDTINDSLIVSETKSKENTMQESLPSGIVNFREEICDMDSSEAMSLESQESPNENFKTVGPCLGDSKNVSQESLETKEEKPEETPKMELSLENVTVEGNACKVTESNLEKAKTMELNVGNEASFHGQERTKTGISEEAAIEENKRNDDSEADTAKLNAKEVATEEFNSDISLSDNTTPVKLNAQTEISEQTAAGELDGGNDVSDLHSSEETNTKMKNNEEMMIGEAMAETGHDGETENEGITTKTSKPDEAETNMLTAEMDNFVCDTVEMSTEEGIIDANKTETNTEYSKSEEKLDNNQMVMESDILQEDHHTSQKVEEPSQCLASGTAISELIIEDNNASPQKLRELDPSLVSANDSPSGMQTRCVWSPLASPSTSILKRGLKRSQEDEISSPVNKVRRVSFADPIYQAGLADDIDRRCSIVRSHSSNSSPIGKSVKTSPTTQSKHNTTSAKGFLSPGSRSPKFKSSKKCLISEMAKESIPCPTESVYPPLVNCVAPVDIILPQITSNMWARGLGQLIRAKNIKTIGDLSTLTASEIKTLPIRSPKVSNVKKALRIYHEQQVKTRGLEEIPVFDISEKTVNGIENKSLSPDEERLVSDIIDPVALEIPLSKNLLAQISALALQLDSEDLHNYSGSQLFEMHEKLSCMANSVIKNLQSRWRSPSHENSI
UniProt P40189, residues 23-918: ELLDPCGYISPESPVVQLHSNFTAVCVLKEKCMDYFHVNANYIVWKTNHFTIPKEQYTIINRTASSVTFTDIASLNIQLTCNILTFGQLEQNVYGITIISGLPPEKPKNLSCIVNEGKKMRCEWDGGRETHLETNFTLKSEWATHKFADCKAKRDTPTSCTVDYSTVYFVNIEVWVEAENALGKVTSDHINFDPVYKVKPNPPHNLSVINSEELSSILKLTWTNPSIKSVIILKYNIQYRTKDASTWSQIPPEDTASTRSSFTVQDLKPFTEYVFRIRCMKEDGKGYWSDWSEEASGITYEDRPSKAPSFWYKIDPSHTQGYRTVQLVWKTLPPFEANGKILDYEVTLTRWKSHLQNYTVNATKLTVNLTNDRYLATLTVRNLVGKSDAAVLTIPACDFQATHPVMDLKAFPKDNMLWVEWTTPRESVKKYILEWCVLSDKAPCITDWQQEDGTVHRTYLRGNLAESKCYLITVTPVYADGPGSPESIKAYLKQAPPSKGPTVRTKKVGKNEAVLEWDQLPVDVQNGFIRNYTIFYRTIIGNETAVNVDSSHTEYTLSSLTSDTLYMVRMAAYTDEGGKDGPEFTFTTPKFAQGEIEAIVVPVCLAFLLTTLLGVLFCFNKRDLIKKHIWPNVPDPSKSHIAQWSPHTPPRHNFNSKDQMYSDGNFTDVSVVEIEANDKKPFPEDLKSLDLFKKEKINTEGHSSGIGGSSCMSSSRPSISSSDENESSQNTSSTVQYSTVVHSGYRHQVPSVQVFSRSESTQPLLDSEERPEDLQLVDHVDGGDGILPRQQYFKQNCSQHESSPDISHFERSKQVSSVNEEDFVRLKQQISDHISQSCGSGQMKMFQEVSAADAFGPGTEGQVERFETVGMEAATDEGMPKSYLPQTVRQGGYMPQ

These are yes or no findings as the source states them, for the method shown. Binding seen in cells or lysates may run through a third protein. Some binding calls cover weakened binding; strength is not graded here. Sequences can lack the tags named with a protein.

Turning to “Rap1 interacting factor 1 (RIF1) (from UniProt Q5UIP0 1-2472)”, the binding entry is recorded as “no binding”. Take “glycoprotein 130 (GP130) (from UniProt P40189 23-918) (receptor)”: the binding entry is “binds”.

B1: low-density lipoprotein receptor-related protein 12 (LRP12) (protein, UniProt Q9Y561 33-859)
chain: EHSENVHISGVSTACGETPEQIRAPSGIITSPGWPSEYPAKINCSWFIRANPGEIITISFQDFDIQGSRRCNLDWLTIETYKNIESYRACGSTIPPPYISSQDHIWIRFHSDDNISRKGFRLAYFSGKSEEPNCACDQFRCGNGKCIPEAWKCNNMDECGDSSDEEICAKEANPPTAAAFQPCAYNQFQCLSRFTKVYTCLPESLKCDGNIDCLDLGDEIDCDVPTCGQWLKYFYGTFNSPNYPDFYPPGSNCTWLIDTGDHRKVILRFTDFKLDGTGYGDYVKIYDGLEENPHKLLRVLTAFDSHAPLTVVSSSGQIRVHFCADKVNAARGFNATYQVDGFCLPWEIPCGGNWGCYTEQQRCDGYWHCPNGRDETNCTMCQKEEFPCSRNGVCYPRSDRCNYQNHCPNGSDEKNCFFCQPGNFHCKNNRCVFESWVCDSQDDCGDGSDEENCPVIVPTRVITAAVIGSLICGLLLVIALGCTCKLYSLRMFERRSFETQLSRVEAELLRREAPPSYGQLIAQGLIPPVEDFPVCSPNQASVLENLRLAVRSQLGFTSVRLPMAGRSSNIWNRIFNFARSRHSGSLALVSADGDEVVPSQSTSREPERNHTHRSLFSVESDDTDTENERRDMAGASGGVAAPLPQKVPPTTAVEATVGACASSSTQSTRGGHADNGRDVTSVEPPSVSPARHQLTSALSRMTQGLRWVRFTLGRSSSLSQNQSPLRQLDNGVSGREDDDDVEMLIPISDGSSDFDVNDCSRPLLDLASDQGQGLRQPYNATNPGVRPSNRDGPCERCGIVHTAQIPDTCLEVTLKNETSDDEALLLC
B1: the binding entry is listed as “no binding”.

Values taken from paper PMC7863430.
